Test results reported in publication PMC11564727.
Results are given in words; binding and its absence hold for the method and conditions named. Binding seen in cells or lysates may run through a third protein. Some results given as binding are weak or reduced against the parent protein; the word gives no strength. For part of these data: Sequences can lack the tags named with a protein.

Amino acid sequences for entries named in this document (tags omitted).
UniProt Q92793: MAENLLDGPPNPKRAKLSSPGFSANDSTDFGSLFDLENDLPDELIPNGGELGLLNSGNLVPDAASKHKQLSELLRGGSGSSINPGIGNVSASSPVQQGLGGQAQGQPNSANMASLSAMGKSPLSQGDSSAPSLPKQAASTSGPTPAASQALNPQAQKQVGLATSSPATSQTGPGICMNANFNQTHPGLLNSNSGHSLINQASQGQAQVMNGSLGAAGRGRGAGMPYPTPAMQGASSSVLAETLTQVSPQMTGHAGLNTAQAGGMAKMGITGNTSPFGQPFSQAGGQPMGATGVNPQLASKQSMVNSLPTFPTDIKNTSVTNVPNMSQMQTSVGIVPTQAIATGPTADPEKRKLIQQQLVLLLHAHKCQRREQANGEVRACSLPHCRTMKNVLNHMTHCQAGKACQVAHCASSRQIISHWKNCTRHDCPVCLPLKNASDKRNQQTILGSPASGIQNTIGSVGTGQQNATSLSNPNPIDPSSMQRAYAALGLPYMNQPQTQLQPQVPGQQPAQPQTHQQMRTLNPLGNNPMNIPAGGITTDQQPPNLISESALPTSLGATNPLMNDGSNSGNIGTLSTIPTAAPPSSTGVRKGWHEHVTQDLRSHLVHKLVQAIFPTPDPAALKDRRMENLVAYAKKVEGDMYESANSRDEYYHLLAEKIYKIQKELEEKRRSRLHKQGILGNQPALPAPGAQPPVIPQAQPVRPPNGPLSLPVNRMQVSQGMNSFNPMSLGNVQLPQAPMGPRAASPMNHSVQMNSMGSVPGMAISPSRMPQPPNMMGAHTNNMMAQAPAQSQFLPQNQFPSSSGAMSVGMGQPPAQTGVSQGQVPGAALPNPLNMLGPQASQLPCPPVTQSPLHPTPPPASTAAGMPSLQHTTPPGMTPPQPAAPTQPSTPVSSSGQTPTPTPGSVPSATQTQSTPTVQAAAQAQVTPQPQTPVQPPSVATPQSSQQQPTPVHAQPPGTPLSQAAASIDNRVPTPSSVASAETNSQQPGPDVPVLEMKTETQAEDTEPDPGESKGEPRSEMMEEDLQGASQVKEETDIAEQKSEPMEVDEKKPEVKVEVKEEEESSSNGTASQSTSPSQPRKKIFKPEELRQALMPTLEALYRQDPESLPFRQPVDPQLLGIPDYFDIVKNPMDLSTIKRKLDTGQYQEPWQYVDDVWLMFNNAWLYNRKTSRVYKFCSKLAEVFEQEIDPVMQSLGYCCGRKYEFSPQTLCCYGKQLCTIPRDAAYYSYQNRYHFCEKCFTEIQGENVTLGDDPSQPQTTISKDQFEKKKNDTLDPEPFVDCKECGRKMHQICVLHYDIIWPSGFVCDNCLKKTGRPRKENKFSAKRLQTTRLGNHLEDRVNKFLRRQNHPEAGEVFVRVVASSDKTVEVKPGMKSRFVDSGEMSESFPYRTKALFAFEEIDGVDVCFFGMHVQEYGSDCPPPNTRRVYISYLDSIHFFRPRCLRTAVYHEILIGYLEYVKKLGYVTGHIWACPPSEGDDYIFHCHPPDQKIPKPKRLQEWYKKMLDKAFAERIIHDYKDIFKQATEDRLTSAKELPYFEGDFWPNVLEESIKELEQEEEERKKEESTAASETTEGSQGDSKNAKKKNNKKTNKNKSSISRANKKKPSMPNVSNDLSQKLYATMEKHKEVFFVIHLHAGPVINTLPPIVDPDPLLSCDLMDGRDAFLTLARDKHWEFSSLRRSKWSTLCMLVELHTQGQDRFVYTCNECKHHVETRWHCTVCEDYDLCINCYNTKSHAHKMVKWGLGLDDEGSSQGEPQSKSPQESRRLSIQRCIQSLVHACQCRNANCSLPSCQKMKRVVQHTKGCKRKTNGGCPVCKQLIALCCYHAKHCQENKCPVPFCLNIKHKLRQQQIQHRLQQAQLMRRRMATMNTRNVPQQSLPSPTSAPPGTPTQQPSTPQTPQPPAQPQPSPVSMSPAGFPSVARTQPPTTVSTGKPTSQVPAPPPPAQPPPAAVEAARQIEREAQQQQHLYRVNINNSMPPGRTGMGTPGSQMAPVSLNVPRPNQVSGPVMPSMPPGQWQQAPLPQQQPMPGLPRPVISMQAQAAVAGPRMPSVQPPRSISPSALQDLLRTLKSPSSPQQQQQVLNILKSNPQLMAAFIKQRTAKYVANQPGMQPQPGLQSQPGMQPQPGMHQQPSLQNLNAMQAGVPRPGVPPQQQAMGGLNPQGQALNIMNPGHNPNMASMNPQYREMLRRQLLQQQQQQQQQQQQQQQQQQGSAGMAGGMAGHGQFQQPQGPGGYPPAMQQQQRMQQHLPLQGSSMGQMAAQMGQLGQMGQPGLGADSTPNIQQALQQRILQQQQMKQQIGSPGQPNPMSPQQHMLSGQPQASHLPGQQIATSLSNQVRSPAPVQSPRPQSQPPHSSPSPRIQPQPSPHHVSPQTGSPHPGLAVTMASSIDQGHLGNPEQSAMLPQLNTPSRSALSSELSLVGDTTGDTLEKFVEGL

B1: Farnesoid X receptor (protein, UniProt Q96RI1 1-486)
chain: MVMQFQGLENPIQISPHCSCTPSGFFMEMMSMKPAKGVLTEQVAGPLGQNLEVEPYSQYSNVQFPQVQPQISSSSYYSNLGFYPQQPEEWYSPGIYELRRMPAETLYQGETEVAEMPVTKKPRMGASAGRIKGDELCVVCGDRASGYHYNALTCEGCKGFFRRSITKNAVYKCKNGGNCVMDMYMRRKCQECRLRKCKEMGMLAECMYTGLLTEIQCKSKRLRKNVKQHADQTVNEDSEGRDLRQVTSTTKSCREKTELTPDQQTLLHFIMDSYNKQRMPQEITNKILKEEFSAEENFLILTEMATNHVQVLVEFTKKLPGFQTLDHEDQIALLKGSAVEAMFLRSAEIFNKKLPSGHSDLLEERIRNSGISDEYITPMFSFYKSIGELKMTQEEYALLTAIVILSPDRQYIKDREAVEKLQEPLLDVLQKLCKIHQPENPQHFACLLGRLTELRTFNHHHAEMLMSWRVNDHKFTPLLCEIWDVQ
B2: Flag-FXR (protein, UniProt Q96RI1 1-486)
chain: B1 chain

What was measured:
[1] = target: CREB-binding protein (human (endogenous in MDA-MB-231)) (UniProt Q92793); assay: co-IP; MDA-MB-231 cells transfected with vector, p53 or p53 K382R plasmid; precipitated with an anti-CBP antibody; western blot (Fig. 6K, L)
[2] = target: CREB-binding protein (human (endogenous in MDA-MB-231)) (UniProt Q92793); assay: co-IP; MDA-MB-231 cell lysate in IP lysis buffer with protease inhibitors; specific antibodies overnight at 4 °C, protein A/G beads 1 h at 25 °C; western blot (Fig. 6A, C-E)
[3] = target: CREB-binding protein (human (endogenous in MDA-MB-231)) (UniProt Q92793); assay: co-IP; endogenous CBP precipitated with an anti-CBP antibody from control or FXR-overexpression cells; western blot (Fig. 6H)

Binder	binding [1]	binding [2]	binding [3]
B1	binds	binds	
B2			binds
